Source: patent US20220026415A1, “A METHOD FOR SCREENING A THERAPEUTIC AGENT FOR CANCER USING BINDING INHIBITOR OF CYCLIN-DEPENDENT KINASE 1 (CDK1)-CYCLIN B1 AND RETINOIC ACID RECEPTOR RESPONDER 1 (RARRES1) GENE KNOCKOUT ANIMAL MODEL” (NATIONAL CANCER CENTER, priority 2018, published 2022)
These are yes or no findings as the source states them, for the method shown. For part of these data: In cells and extracts the contact can be indirect. Some entries that bind do so weakly or less than the wild type.

Amino acid sequences for entries named in this document (tags omitted). A change or cut given only in a name is not applied to a line headed by its entry.
UniProt P14635: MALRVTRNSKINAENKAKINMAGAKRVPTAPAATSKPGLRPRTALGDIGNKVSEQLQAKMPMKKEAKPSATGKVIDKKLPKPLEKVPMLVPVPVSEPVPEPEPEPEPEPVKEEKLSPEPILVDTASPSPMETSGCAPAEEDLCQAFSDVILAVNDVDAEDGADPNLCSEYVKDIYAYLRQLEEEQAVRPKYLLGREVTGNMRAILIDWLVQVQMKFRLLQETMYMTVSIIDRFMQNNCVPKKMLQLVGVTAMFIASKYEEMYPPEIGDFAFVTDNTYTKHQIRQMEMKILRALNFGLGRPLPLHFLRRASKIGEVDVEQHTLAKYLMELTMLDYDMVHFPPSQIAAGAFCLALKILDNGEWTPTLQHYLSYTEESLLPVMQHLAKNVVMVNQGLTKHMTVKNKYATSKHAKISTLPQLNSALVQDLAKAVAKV
UniProt P06493: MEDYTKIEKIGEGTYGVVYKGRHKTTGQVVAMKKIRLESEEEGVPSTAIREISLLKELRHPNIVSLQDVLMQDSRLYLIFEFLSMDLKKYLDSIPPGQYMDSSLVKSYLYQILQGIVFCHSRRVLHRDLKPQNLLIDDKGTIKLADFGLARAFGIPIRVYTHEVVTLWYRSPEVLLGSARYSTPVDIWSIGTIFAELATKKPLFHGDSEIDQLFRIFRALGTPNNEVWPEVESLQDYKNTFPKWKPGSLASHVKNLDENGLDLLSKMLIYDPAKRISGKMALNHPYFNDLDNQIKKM
UniProt P49788: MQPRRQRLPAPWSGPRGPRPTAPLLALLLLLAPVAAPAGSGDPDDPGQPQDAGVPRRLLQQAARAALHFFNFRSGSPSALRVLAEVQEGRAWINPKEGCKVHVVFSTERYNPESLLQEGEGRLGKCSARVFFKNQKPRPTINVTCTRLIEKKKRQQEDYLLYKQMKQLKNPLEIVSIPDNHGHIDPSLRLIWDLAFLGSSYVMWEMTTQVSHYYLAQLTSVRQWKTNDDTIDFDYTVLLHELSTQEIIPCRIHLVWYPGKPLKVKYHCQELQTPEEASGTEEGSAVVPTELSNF

How the values were obtained:
[1] = target: glutathione S-transferase (GST)-tagged Cyclin B1 (Homo sapiens (Human)) (UniProt P14635); test: GST pull-down from HEK293 cells co-transfected with RARRES1 and GST-Cyclin B1, immunoblot
[2] = target: endogenous CDK1 of HEK293 cells (UniProt P06493); test: immunoprecipitation with RARRES1-specific antibody from mitotic (+nocodazole) or exponentially growing 293 cells, immunoblot
[3] = target: endogenous Cyclin B1 of HEK293 cells (Homo sapiens (Human)) (UniProt P14635); test: as above
[4] = target: GST-CDK1 (UniProt P06493); test: GST pull-down from HEK293 cells co-transfected with RARRES1 and GST-CDK1, immunoblot
[5] = target: glutathione S-transferase (GST)-tagged Cyclin B1 (Homo sapiens (Human)) (UniProt P14635); test: GST-bead precipitation from HEK293 cells co-transfected with RARRES1 and Cyclin B1
[6] = target: GST-CDK1 (UniProt P06493); test: GST pull-down from HEK293 cells co-transfected with RARRES1 and GST-CDK1

Measured: binding

retinoic acid receptor responder 1 (RARRES1), isoform 1, wild type, overexpressed in HEK293 cells (from UniProt P49788 1-294)
binds: all assays above
